Source: patent US20220185854A1
No constants are given. Whether binding was seen depends on the method and setting. Binding seen in cells or lysates may run through a third protein. Some entries that bind do so weakly or less than the wild type.

The chains behind the UniProt entries cited, without tags or fusion partners. Residues count along the entry.
UniProt P19484: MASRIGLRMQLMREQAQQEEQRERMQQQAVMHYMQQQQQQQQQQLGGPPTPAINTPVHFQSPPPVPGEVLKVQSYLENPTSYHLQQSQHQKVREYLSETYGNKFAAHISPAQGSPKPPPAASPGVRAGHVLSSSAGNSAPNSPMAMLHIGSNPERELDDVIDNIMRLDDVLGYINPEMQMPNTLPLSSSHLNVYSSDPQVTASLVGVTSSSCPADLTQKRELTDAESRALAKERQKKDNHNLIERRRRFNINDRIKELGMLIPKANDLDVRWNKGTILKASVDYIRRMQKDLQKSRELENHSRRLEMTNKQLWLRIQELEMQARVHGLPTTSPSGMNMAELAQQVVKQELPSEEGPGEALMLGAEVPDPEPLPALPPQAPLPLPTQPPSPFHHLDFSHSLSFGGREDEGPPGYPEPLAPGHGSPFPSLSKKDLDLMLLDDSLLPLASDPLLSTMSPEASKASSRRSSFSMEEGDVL
UniProt P63165, residues 1-97: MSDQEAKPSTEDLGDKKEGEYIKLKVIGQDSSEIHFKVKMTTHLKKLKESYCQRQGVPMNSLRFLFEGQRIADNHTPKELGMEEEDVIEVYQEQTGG
UniProt P61956, residues 1-93: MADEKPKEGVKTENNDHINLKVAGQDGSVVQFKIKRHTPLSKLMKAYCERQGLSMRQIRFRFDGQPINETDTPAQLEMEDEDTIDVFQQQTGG

Experiments:
[1] = molecular target: transcription factor EB (TFEB), wild type (UniProt P19484); assay: covalent SUMO conjugation in HeLa cells; Ni-agarose pulldown of His-SUMO under denaturing conditions, Western blot
[2] = molecular target: transcription factor EB (TFEB), wild type (UniProt P19484); assay: covalent SUMO conjugation in HeLa cells; His pulldown under denaturing conditions, Western blot (FIG. 1)
[3] = molecular target: transcription factor EB (TFEB), wild type (UniProt P19484); assay: covalent SUMO conjugation in HeLa cells deprived of nutrients for 1-4 h; His pulldown, Western blot (FIG. 2)
[4] = molecular target: transcription factor EB (TFEB), wild type (UniProt P19484); assay: covalent SUMO conjugation in HeLa cells deprived of nutrients; His pulldown, Western blot (FIG. 2)
[5] = molecular target: transcription factor EB (TFEB), wild type (UniProt P19484); assay: covalent SUMO conjugation in HeLa His-SUMO2 cells treated with Torin-1 for 1-4 h; His pulldown, Western blot (FIG. 3)
[6] = molecular target: transcription factor EB (TFEB), wild type (UniProt P19484); assay: covalent SUMO conjugation in HeLa His-SUMO2 cells treated with Torin-1; His pulldown, Western blot (FIG. 3)

Measured: binding

6xHis-tagged SUMO1 (from UniProt P63165 1-97)
binds: [1] | [2]

6xHis-tagged SUMO2 (from UniProt P61956 1-93)
binds: all assays above
